Measured values as given in the supplement of paper PMC7666118.
This is one part of the list.

Amino acid sequences for entries named in this document (tags omitted). A change or cut given only in a name is not applied to a line headed by its entry.
UniProt P14625, whole entry: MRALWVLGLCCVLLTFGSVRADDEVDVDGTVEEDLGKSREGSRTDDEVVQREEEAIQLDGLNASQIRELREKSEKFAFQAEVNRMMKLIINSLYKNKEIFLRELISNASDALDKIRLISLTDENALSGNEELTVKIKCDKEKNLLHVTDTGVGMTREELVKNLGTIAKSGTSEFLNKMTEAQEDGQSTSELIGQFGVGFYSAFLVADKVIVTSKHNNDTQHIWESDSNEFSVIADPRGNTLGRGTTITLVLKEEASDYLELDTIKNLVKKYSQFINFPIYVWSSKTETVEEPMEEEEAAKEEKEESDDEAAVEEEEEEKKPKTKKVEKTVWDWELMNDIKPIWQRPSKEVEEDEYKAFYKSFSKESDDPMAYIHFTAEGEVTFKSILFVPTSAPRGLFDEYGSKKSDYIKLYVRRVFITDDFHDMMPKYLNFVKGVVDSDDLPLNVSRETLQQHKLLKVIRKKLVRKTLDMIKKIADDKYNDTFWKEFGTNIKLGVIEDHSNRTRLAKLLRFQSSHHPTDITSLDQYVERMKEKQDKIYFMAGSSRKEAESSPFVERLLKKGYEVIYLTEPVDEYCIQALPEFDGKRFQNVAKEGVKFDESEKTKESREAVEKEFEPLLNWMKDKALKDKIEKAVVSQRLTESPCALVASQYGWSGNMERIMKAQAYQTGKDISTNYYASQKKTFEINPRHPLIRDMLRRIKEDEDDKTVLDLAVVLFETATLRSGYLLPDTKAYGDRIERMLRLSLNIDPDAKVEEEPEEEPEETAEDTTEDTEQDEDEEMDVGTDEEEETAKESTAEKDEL
UniProt P19367: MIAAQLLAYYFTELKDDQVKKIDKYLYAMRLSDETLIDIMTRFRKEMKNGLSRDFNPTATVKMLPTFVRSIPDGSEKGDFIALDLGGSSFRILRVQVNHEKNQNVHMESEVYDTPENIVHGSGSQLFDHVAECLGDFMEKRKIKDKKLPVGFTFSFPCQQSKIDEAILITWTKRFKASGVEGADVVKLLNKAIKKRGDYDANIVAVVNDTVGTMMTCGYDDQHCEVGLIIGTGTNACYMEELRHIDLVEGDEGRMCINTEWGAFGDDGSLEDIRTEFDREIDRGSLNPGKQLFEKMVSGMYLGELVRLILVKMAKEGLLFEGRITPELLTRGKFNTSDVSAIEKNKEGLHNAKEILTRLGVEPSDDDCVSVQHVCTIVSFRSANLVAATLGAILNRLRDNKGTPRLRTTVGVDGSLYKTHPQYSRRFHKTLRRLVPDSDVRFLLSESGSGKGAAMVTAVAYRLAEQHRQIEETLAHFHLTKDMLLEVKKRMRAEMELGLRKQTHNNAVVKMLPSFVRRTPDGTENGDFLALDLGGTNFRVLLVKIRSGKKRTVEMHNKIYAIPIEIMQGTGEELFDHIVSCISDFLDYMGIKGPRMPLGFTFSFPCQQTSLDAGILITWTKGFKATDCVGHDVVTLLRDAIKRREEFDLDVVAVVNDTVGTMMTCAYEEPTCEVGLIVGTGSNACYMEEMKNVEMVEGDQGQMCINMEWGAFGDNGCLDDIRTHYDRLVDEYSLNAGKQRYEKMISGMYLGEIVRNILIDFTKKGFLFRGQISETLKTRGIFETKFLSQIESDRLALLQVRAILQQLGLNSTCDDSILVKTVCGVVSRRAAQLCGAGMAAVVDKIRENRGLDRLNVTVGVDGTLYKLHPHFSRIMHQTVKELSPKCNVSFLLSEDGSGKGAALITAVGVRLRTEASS
UniProt P69905, whole entry: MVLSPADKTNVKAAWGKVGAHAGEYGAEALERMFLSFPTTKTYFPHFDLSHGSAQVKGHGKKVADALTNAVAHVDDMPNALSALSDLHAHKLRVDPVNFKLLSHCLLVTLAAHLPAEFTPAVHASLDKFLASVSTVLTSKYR
UniProt Q13547, whole entry: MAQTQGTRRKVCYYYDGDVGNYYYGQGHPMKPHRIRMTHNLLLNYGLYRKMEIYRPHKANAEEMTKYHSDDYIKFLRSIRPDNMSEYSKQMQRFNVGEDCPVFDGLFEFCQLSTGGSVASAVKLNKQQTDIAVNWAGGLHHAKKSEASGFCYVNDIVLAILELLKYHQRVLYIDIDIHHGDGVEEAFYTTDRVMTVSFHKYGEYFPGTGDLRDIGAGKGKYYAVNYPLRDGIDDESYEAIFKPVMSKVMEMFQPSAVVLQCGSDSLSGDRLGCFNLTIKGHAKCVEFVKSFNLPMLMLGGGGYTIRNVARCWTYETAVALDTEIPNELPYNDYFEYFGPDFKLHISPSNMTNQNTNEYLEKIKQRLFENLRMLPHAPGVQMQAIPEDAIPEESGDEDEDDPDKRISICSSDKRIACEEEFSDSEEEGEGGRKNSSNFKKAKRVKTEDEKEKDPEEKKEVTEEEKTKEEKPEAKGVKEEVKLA
UniProt Q9BSH5: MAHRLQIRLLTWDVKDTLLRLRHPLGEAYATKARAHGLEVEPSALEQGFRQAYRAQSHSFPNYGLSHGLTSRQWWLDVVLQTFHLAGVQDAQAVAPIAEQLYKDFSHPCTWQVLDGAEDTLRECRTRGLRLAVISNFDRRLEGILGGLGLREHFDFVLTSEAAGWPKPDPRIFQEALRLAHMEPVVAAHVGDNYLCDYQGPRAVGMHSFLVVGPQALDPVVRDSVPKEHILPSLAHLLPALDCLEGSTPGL
UniProt Q7Z4H3: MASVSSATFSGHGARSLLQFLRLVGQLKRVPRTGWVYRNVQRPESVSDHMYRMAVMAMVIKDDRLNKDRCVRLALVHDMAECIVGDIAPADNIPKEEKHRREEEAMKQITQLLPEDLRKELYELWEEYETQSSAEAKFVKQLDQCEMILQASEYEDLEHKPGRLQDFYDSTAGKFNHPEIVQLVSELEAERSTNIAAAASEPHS
UniProt P0C0S5, whole entry: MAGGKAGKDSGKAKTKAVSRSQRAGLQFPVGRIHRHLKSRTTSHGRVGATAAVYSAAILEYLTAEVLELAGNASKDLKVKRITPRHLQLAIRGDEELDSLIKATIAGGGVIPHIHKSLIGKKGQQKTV
UniProt Q9HAV7: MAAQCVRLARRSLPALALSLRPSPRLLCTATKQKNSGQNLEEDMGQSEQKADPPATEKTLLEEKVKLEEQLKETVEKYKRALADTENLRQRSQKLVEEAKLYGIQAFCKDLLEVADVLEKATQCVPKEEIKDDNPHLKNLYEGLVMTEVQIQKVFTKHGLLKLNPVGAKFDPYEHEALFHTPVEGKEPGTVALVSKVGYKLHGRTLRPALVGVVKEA
UniProt P09429: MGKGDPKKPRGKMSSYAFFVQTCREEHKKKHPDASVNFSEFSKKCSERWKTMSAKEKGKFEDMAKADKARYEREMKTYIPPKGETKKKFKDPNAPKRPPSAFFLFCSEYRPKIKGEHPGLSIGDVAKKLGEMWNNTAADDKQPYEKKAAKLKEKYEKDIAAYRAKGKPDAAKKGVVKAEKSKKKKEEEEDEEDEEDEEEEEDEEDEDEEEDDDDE
UniProt P17096: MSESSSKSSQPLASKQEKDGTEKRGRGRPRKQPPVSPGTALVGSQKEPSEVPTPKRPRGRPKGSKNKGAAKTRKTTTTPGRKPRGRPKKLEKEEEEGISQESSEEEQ
UniProt Q9HCL2: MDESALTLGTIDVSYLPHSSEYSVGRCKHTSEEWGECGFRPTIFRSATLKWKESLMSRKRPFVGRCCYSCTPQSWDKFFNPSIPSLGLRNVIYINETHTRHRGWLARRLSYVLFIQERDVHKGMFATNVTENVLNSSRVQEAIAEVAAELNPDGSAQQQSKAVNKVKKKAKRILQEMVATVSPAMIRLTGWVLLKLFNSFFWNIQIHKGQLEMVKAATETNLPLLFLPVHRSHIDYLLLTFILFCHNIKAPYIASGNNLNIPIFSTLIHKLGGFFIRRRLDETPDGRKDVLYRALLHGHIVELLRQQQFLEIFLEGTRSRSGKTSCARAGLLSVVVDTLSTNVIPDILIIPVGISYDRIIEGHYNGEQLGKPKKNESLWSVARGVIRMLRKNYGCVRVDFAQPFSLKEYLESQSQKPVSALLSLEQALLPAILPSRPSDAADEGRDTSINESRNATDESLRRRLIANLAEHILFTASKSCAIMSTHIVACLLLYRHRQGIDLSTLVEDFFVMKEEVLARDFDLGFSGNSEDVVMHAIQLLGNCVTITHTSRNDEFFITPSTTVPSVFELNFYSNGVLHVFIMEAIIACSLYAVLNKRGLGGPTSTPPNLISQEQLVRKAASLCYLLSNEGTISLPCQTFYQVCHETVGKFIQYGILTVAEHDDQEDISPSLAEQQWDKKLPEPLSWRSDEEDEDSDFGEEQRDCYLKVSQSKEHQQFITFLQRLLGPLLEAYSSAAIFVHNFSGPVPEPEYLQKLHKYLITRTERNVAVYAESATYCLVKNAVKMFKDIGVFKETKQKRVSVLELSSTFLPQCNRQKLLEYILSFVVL
UniProt P11142, whole entry, looked up: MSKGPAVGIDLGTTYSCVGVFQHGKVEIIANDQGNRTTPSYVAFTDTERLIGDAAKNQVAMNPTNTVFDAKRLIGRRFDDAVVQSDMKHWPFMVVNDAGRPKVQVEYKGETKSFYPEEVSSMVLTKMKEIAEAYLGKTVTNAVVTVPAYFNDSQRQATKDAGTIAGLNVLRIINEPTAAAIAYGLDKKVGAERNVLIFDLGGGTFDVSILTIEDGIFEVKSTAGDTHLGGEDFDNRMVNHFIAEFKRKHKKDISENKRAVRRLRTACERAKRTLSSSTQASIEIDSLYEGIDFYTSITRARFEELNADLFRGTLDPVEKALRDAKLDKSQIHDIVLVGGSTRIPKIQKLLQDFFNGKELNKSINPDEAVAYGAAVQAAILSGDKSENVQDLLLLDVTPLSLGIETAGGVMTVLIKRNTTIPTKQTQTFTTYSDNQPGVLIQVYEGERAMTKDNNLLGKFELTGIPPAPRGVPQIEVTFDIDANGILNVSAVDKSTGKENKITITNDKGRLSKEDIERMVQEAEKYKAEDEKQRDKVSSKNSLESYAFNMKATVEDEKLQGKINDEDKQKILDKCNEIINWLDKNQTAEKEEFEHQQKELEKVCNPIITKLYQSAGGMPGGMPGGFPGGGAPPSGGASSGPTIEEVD
UniProt Q00839, whole entry: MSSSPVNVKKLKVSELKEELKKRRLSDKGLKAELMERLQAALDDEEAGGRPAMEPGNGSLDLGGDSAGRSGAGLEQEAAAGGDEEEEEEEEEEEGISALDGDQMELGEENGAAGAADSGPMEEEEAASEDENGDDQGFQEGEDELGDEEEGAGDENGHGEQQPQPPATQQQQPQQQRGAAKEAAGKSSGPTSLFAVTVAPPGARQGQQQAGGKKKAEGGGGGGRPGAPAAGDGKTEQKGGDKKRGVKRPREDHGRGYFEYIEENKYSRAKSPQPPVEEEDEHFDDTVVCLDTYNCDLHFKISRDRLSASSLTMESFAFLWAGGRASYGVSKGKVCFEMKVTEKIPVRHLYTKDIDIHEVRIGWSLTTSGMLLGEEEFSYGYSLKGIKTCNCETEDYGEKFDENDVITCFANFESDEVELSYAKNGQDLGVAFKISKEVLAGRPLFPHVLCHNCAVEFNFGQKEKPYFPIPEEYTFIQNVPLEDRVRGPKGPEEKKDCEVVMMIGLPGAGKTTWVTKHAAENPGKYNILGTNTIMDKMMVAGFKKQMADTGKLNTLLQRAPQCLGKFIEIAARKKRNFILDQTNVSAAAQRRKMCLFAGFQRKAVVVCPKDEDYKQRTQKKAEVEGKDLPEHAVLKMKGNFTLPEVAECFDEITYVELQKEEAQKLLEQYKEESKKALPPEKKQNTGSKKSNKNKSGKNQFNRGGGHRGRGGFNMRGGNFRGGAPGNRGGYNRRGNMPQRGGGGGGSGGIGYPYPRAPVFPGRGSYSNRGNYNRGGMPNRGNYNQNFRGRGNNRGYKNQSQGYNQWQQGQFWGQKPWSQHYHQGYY
UniProt Q5JVS0: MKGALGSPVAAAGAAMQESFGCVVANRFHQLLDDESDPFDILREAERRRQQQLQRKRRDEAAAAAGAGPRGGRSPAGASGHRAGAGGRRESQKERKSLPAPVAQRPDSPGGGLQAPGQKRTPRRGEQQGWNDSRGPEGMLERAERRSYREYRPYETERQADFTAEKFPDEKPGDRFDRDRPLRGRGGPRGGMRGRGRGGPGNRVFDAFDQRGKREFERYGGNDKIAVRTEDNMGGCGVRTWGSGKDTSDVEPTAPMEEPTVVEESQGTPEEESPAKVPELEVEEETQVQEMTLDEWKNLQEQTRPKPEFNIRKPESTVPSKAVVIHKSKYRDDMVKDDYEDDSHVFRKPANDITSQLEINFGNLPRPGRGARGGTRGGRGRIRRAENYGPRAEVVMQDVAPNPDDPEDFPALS
UniProt P49841: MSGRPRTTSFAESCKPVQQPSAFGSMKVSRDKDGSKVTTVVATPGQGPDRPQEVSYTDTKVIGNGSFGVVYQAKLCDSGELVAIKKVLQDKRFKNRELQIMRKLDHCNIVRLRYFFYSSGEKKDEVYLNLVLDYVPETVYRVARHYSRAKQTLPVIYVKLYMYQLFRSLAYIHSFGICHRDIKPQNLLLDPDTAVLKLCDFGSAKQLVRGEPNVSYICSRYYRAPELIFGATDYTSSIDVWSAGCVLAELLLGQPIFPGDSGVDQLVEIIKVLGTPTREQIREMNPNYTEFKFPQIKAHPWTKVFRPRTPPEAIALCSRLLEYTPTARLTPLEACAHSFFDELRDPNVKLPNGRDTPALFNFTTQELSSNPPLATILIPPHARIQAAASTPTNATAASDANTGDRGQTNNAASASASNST

compound: COc1ccc(Cn2ccc3cc(C)c(C(=O)NO)cc32)cc1; test: dose-dependent thermal stabilisation call (2D-TPP, DLPTP, 10% FDR) (binary (1 = stabilised)); higher = stabilised by the compound; conditions: system: HL-60 intact cells; concentration range 0.04-10 µM
Protocol: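 2D thermal proteome profiling in intact HL-60 cells treated with BRD-3811 (0, 0.04, 0.29, 2, 10 uM) for 90 min at 37 C, then heated 3 min at one of 12 temperatures (42-63.9 C). Soluble protein was quantified by TMT10 MS. The value is the DLPTP call of the paper: dose-dependent thermal stabilisation over all temperatures at 10% FDR (F-test of a dose-response against a flat model); one experiment, one call per tested protein.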

Target | dose-dependent thermal stabilisation call
HSP90B1 (UniProt P14625) | inactive: 0
HK1 (UniProt P19367) | inactive: 0
HBA1 (UniProt P69905) | inactive: 0
HDGF2 | inactive: 0
HNRNPUL2 (UniProt Q1KMD3) | inactive: 0
HSPB11 (UniProt Q9Y547) | inactive: 0
GTF3A (UniProt Q92664) | inactive: 0
HDAC2 (UniProt Q92769) | inactive: 0
HDAC1 (UniProt Q13547) | inactive: 0
HSD17B10 (UniProt Q99714) | inactive: 0
HDHD3 (UniProt Q9BSH5) | inactive: 0
HDDC2 (UniProt Q7Z4H3) | inactive: 0
HSPC152 (UniProt Q9UI30) | inactive: 0
HEATR5A (UniProt Q86XA9) | inactive: 0
HNRNPD (UniProt Q14103) | inactive: 0
HERC4 (UniProt Q5GLZ8) | inactive: 0
HNRNPA3 (UniProt P51991) | inactive: 0
HLTF (UniProt Q14527) | inactive: 0

2 entries from above in another layout.
Target	dose-dependent thermal stabilisation call
HBA1 (UniProt P69905)	inactive: 0
HDHD3 (UniProt Q9BSH5)	inactive: 0

Additional results.

Target | dose-dependent thermal stabilisation call
H2AFZ (UniProt P0C0S5) | inactive: 0
GRPEL1 (UniProt Q9HAV7) | inactive: 0
GPBP1L1 (UniProt Q9HC44) | inactive: 0
HMGB1 (UniProt P09429) | inactive: 0
HMG20A (UniProt Q9NP66) | inactive: 0
H2AFX (UniProt P16104) | inactive: 0
HMGA1 (UniProt P17096) | inactive: 0
GPAM (UniProt Q9HCL2) | inactive: 0
HSPA8 (UniProt P11142) | active: 1
GOLT1B (UniProt Q9Y3E0) | inactive: 0
HSPA1A (UniProt P0DMV8) | inactive: 0
HNRNPU (UniProt Q00839) | inactive: 0
HABP4 (UniProt Q5JVS0) | inactive: 0
GSK3B (UniProt P49841) | inactive: 0
GPR125 (UniProt Q8IWK6) | inactive: 0
GRK6 (UniProt P43250) | inactive: 0
HNRPA1L-2 | inactive: 0
GPR175 (UniProt Q86W33) | inactive: 0
